Results reported in publication doi:10.1101/2022.04.10.487777.

By UniProt entry, the sequences of proteins in these tests, tags left out.
UniProt Q8CG73: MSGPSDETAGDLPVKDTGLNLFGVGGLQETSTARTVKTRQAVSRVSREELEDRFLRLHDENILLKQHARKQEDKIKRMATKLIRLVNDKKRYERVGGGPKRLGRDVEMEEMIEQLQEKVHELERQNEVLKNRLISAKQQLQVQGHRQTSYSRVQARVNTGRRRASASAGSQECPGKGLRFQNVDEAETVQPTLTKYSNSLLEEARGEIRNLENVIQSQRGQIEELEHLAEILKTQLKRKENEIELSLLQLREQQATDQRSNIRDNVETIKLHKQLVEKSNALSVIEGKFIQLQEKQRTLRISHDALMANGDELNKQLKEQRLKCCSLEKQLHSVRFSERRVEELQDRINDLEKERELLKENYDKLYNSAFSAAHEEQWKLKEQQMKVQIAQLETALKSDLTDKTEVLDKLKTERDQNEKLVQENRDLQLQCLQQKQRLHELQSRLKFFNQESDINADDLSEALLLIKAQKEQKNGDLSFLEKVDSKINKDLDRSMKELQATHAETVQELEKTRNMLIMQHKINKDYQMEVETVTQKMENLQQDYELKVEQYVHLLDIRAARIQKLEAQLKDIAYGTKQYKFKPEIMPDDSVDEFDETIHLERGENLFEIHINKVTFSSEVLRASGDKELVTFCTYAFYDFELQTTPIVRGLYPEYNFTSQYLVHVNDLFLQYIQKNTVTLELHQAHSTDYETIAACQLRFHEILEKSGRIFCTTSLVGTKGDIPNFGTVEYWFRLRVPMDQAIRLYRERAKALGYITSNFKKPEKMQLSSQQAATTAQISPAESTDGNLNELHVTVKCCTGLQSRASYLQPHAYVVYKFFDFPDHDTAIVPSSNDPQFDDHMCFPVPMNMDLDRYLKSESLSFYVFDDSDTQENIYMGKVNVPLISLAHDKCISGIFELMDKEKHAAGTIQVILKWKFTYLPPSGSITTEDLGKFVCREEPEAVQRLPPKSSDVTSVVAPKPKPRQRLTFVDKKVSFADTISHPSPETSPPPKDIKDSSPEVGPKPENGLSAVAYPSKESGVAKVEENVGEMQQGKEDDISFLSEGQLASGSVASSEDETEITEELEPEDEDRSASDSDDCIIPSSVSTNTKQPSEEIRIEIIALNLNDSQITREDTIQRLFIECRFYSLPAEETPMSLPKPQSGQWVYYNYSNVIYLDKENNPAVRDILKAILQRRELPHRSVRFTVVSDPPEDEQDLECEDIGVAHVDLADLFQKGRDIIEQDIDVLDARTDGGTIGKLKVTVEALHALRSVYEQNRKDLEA
UniProt Q6A078: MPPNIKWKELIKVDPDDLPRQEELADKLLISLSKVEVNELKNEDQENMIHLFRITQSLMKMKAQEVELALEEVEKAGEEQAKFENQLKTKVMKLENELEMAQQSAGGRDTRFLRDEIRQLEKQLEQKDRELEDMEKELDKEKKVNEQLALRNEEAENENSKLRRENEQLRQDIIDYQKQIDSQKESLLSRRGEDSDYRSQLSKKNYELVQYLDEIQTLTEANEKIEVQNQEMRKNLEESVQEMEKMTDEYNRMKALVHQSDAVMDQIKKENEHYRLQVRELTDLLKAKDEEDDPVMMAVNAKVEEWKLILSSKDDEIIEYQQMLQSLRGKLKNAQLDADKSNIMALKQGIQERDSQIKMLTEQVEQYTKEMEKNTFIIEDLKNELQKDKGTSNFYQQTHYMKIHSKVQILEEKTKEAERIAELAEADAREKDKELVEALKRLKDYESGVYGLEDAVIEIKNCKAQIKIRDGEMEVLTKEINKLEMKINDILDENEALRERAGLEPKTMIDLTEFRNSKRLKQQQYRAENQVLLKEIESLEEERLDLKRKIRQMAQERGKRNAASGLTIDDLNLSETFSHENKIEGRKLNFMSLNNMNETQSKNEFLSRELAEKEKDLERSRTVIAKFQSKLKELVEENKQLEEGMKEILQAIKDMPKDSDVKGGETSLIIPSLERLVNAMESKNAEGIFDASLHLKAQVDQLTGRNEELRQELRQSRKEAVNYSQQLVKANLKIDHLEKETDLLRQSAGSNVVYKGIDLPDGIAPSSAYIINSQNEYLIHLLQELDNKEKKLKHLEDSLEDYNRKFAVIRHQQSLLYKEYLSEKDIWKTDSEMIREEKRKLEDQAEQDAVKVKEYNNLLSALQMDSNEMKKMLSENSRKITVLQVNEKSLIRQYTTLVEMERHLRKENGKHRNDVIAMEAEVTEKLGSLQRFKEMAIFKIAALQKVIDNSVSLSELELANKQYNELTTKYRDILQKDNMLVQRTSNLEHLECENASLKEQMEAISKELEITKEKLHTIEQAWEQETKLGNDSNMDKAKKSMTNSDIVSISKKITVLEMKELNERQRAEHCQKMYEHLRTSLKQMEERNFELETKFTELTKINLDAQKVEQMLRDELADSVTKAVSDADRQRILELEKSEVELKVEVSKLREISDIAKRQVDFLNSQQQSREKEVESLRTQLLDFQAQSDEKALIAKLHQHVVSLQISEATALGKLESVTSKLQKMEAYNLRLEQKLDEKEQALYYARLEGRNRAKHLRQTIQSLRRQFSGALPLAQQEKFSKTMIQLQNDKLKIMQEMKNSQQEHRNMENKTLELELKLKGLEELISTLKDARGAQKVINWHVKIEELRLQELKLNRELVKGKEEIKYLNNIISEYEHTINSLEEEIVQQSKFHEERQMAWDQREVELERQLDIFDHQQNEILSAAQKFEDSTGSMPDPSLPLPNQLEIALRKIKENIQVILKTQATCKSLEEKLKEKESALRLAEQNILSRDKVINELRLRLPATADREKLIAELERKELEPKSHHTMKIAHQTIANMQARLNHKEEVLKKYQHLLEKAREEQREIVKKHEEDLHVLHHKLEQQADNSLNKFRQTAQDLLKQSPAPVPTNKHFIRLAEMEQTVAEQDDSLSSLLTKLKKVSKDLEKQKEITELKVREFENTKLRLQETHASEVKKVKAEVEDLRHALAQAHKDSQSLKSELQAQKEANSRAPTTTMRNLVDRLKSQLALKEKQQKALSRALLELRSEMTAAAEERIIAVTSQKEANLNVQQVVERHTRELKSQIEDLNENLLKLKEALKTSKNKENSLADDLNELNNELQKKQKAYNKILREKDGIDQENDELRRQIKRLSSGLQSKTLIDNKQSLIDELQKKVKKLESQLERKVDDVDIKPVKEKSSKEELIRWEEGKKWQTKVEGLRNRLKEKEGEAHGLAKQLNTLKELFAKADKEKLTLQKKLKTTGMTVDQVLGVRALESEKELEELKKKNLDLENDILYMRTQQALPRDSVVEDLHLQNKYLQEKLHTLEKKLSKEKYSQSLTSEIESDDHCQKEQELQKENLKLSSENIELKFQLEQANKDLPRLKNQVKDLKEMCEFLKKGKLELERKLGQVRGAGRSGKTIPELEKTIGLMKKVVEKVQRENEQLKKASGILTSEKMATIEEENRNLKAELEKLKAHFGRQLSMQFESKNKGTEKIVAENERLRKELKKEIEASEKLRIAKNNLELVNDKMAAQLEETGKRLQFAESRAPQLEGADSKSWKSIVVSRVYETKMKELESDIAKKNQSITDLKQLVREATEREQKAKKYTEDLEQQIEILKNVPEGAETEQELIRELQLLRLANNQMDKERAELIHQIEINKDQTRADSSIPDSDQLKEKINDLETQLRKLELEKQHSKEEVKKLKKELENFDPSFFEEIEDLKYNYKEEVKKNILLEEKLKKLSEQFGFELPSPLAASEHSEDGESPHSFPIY
UniProt Q6A070: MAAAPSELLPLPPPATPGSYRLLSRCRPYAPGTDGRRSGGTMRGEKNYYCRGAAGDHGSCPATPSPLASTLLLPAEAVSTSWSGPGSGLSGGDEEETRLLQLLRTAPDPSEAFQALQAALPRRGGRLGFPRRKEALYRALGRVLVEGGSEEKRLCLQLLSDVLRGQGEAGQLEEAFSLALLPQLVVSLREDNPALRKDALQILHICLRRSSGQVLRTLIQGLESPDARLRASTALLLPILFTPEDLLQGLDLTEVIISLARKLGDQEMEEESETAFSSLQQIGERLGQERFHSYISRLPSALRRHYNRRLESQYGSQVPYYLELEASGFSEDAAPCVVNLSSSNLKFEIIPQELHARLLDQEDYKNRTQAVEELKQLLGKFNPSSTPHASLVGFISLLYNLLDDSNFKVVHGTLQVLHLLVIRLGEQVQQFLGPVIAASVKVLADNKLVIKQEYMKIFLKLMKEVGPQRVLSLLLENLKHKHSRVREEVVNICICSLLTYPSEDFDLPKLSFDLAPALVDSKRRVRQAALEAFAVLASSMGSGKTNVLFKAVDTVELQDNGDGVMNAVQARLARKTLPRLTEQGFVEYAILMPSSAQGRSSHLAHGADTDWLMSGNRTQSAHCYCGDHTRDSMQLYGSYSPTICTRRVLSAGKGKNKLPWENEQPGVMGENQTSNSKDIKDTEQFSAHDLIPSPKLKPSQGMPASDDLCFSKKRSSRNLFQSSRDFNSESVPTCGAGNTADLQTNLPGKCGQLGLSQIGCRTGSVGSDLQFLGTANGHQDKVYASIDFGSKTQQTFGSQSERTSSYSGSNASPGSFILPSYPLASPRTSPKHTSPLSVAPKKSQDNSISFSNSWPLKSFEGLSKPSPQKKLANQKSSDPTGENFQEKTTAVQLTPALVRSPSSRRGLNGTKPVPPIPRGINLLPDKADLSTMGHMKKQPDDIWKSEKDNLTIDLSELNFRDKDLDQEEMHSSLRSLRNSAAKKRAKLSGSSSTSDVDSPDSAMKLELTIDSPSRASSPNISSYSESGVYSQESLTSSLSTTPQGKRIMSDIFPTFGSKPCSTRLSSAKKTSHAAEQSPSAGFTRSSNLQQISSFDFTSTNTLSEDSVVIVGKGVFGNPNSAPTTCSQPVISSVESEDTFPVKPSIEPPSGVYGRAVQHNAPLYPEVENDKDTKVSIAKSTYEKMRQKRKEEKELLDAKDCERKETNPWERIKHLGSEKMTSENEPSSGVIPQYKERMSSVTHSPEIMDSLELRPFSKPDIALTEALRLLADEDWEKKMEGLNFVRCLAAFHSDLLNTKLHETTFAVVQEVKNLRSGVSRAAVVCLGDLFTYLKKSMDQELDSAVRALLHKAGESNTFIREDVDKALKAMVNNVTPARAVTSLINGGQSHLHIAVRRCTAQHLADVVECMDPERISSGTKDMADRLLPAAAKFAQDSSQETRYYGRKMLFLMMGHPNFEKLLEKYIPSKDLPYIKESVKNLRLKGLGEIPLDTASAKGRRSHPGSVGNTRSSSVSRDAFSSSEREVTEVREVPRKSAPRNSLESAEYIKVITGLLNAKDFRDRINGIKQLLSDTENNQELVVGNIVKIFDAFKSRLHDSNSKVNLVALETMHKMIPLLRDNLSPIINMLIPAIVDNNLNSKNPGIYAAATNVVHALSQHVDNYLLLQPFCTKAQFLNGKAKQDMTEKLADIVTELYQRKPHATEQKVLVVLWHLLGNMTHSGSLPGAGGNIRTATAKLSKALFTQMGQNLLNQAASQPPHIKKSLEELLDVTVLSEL

T1: FLAG-miniTurbo-CCDC66 (UniProt A2RUB6)
T1 sequence: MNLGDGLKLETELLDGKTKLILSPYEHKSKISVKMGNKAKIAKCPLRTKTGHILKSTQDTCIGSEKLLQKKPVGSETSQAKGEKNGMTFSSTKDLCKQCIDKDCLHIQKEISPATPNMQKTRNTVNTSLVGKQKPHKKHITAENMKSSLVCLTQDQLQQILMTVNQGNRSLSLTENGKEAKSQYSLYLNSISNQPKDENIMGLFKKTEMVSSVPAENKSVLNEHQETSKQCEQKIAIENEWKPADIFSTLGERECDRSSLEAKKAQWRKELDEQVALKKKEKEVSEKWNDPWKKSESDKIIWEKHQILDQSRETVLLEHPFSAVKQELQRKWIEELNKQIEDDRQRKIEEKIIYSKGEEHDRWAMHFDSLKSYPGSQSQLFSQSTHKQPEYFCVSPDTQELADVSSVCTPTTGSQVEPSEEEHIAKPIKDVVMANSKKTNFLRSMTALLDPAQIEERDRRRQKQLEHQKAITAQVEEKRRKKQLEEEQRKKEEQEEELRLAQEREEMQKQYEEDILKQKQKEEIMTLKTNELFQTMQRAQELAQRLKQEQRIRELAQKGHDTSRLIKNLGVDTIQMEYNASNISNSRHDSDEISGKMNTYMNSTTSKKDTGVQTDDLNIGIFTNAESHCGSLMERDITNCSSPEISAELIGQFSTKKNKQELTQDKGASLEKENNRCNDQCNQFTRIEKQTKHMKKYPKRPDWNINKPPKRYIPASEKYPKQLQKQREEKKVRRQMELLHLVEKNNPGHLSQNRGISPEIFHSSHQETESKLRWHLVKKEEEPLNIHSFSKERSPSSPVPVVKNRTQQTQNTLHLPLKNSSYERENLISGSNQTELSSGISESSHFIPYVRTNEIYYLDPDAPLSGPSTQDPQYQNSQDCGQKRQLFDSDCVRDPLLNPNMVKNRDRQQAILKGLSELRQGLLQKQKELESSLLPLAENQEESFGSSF

B1: LCA5 (IMCD3 cells) (protein, UniProt Q80ST9 1-704)
chain: MGERARSPDIEQGKKGGKHPYSHYSSDLGSSPQSSGPSSPVNTTPCASTREKNPKRHLSDNQVHHPTVRKVSPKAVPSKKGIRVGFRSQSLNREPLRKDPDIVTKRVLSARLLKINELQNEVSELQVKLAQLLKENKALKSLQYRQEKALNKFEDAENEISQLIHRHNNEITALKERLRKSQEKERATEKRVKETEGELFRTKFSLQKLKKISEARHLPERDDLAKKLVSAELKLDDTERKIKELSKNLELSTNSFQRQLLAERKRAFEAYDENKVLQKELQRLHHKLKEKEKELDIKNIYANRLPKSSPKKEKEIERKHVSCQSDFTDQCTKGVQTAEDFELEDFPFTAQTVLCYENRWDEPEYLSSYLEYQDLNKHGSEMLSSVLGQEGKYDEDEDPCSAKQEARKPESEWAREELDKVKGKSALLGRAEKLALEAGRFPTENYQAQSVDKFEDEAERLKTEMLLAKLNEINKELQDPQNLGRAPLPLLPNFESKLHSPDRSTRPYSFPESLDRSFNGQHLQDLSFLTPRGEGGSPGPIRSPGQIRSPAPLDEFSFGSYVPSFGKTLGKSNPPSQKSSLLDFQSNSSESPSKDSLDLMSRKEKKATLMEQLFGPSASNTSVSSKSTDPHFPAASRGDMDPLHFLSGDRNSRVREPGDEEEDLFLREGRSFNPNRHRLKHASNKPTVTAVDSVDEDIEEVTLR
B2: CSPP1 (IMCD3 cells) (protein, UniProt B2RX88 1-1205)
chain: MADSLDEFIEEQKAKLAKDKAELESDPPYMEMKGKASEKLSENSKILISMAKENIPPSSQQQPKGPLGIEYGLSLPLGEDYEQKKHKLKEELRQDYRRYLTQGITQAKRKKNFLSTGETDPSTLGVSLPIDERLSAKERLKLERNREYNQFLRGKAESTEKVRQVEKNIEPKSQRNKNPISQGKSDLPLQIQTAYTHSEGPWLSRQEEGLYRQLDGEIELRSRRPLKQTKEEVGISGAEHPSLSGSAGVPERRARRANGERVLDRQHCRADRDPGVSEDMDERFRFESDFDRRLLRVYTNGRPHGSRRGYVDGDDVPEEPNTQISAAENKSVHCNGPPRSADLDITSPFAGMLFGGEDRELTKRRKEKYRQELLEQIAEQQKKKRREKDLAFGITTSGVQDPEKSPDRLKQFSLTPRHFEEMPPERPRVAFQTPPPPFSAPSSPSVPPVHSAPSHNEDLHSGLGSTLGELAHPRVLPVPLNPPPPPLLAPPASNYRTPYDDAYYFYGARNTLDPNIVYYGSGMIGGQPAPHVSAPVTHQVAPPAVNTVGQNEQKVLSDGLRNSGLVFEDKPKPSTQSLQSYQEALQEQIREREARRKKERLEKEEYEAKLEAEMRIYNPWGKGGGGAPLRDAKGNLITDLNRMHRQNIDAYHNPDARTYEDKRAVVSIDQNLATSNAENLEDSANKNSGPLQTQSSPFARGNTFGEPLSELQIKQQELYKNFLRFQIEEKRQREEAEREKLRVAEEKEEKRLAEQRARIQQEYEEEQERRREKEEEQRLKNEELIRLAEERRKEAERKKKEEEEKHNLQLQHYYERENIIGDETKHLRQPSPVVPALQNKIASKLQRPPSVDTIISSFIHESSMSRAQSPPVPARKNQLRAEEEKKNVIMELSEMRKQLRSEERRLQGRLLHLDSDDEIPMRKRERNPMDIFDMARHRVQAPVRRPSPKGLDATTFQNIHDFNELRERDSDTRVDLRLMYPDPPRDHHTLEIQQQALLREQQKRLNRIKMRRDAGADLDTICTDNAQGRRMPRDDTNDFLKNSLLESDSAFIGAYGETYPVIEDNAFPPPSQLPSARERRRNKLKGLDFDSSRLHTPQDGLSLKSISSVNVDQVRMRNEDRMRRLTEQQKKPTNTDDEGSLVDPDDIMRHLSDDGRNSAATEPWLRPGTSESLKRFMAEHLNEEQHKGPGKPGTFTWQGLSAAHA
B3: ARMC9 (IMCD3 cells) (protein, UniProt Q9D2I5 1-817)
chain: MGDILAHESELLGLVKEYLDFAEFEDTLKTFSKECKVKGKPLCKNVGGPLKKDSKSLVIQRDLVAAFDSGDQKAFFDLWEGHIPSSVRDTDSLAQKLEFYLHIHFAIYLLKYCRGRPDKQELDKRISYFKTYLETKGAALSQTTEFLPFYALPFVPNPMVHPSFKELFQDSWTPELKLKLEKFLALTFKANNTPKLLTIYKENGPNSKELLQQLHQQLVEAERRAMTYLKRYNKIQADYHNLIGVTAELVDSLEATVSGKMITPEYLQSVCVRLFSNQMRQSLAHSVDFTRPGTASTMLRASLAPEKLKDVPLLPSLDYEKLKKDLIWGSDRLKAFLLQALRWRLTTSHPGEQRETVLQAYISNDLLDCHSHNQRSVLQLLHSKSEAVRQYMARLINALASLAEGRLYLAQNTKVLRMLEGRLKEEDKDVITRENVLGALQKFSLRRPLQTAMIRDGLIFWLIDLLKDPDCLSDYTLEYSVALLMNLCLRSAGKNMCAKVAGLMLKVLSDLLGHENHEIQPYVNGALYSILSIPSIREEARAMGMEDILRCFIKEGNAEMIRQIEFIIKQLNSEDLLDGVLESDDDEDEDDEEDHDIMEADLDKDELIQPQLGELSGEKLLTTEYLGIMTNTGKARRKGPASVQWSGDEPLRRPVTPGGHRTGCPVLGDHLISPQNAQQARNGCLRAMPVAHPDDYKEGKPGVTGCGTSSSFMDHKPREWSPAGHQKSRLVPTAALGWPREMTQDPSSGHITREFVPAFTCKPQVPSTPETVEQNPLKAKALSLAPQFSSSGPQQASRPASTASSTRGLHSSQSIRK
B4: CEP104 (IMCD3 cells) (protein, UniProt Q80V31 1-926)
chain: MPHKIGFVVVSSSGHEDGFSARELMIHAPTVSGWRSPKFCQFPQEIVLQMVERCRVRKLQLLAHQYMISSKVEFYISESLPEYLVPYQAERFRRLGYVSLCDNEKTGCKARELKSVYVDAVGQFLKLIFHQNHANKYNIYNQVALVAINIIGDPADLGDESNITSREKLIDHYLGHSPHNPEDPALDGTFSGRSDYISPLDDLAFDMYQDPEVAQIIRRLDERKREAVKKERYDHAKKLKQAIADLQKVGERLGRYEVEKRCAVEKEDYDLAKEKKQQMARYRAQVYEQLELHGLLQGEPEMQRPFALPLQPLASPSSPQHWKAVSSLPRTEKLVAEDSFAGPVLQEKPSASSPQHSAVDPSPPAAGHAPRSHTEVLPYDERPLPVTRKQLGEASAEAEVKEADSDVRRRGVAGEPEPLTEKALREASAAIDTLGEALVAGAYSKMWSCREDALLALYKKLMEMPVGTQKEDLKNMLRASVFLIRRAIKDIVASVFQASLKLLKMIITQYIPKHKLGKLDTTHCVERAFPLLLARAGDSSARLRVMALNFIQEMALFKEVKSLQLIPSYLVQPLKANASVHLAMSQVDLLARLLRDLGTESSGFTVDNVMKFAVSALEHRVYEVRETAVRIILDMYRQHPALTLEHLPPDDSATRRNLLYKAIFEGFAKIDGSVLPTEAEVRAQKRVATKEAEKQKKEEMKALQGQSGELRETQAGVQEKESEAVKLRNQDPQGRKAVLPDTPEIPANHFLDNLCIFCGERNESFTEEGLDLHYWKHCLMLTRCDHCRQVVEISSLTEHLLTECDRRDGFGKCPRCSEAIPKEELPGHIKTKECSPAKPEKVANHCPLCHENFAPGEEAWKVHLMGPAGCTMNLRKTHVLYKATAPQQGKGPAAAKSSTSAPKVGSKIPTPKGGLSKSSSRTYMRR
B5: Tubulin Tyrosine Ligase Like 5 (IMCD3 cells) (protein, UniProt Q8CHB8 1-1328)
chain: MPVVMARDLEETASSSEDEDLANQEDHPCIMWTGGCRRIPVLVFHAEAILTKDNNIRVIGERYHLSYKIVRTDSRLVRSILTAHGFHEVHPSSTDYNLMWTGSHLKPFLLRTLSEAQKVNHFPRSYELTRKDRLYKNIIRMQHTHGFKAFHILPQTFLLPAEYAEFCNSYSKDRGPWIVKPVASSRGRGVYLINNPNQISLEENILVSRYINNPLLIDDFKFDVRLYVLVTSYDPLVIYLYEEGLARFATVRYDQGSKNIRNQFMHLTNYSVNKKSGDYVSCDDPEVEDYGNKWSMSAMLRYLKQEGKDTTALMAHVEDLIIKTIISAELAIATACKTFVPHRSSCFELYGFDVLIDNTLKPWLLEVNLSPSLACDAPLDLKIKASMISDMFTVVGFVCQDPAQRTSNRSIYPSFESSRRNPFQKPQRTRPLSASDAEMKNLVASAREKVPGKLGGSVLGLSMEEIKVLRRVKEENDRRGGFIRIFPTSETWEIYGSYLEHKTSMNYMLATRLFQDRGNPRRSLLTGRARVSTEGAPELKVESMNSKAKLHAALYERKLLSLEVRKRRRRSGRLRAMRPKYPVIAQPAEMNIKTETESEEEEEVGLDNDDEEQEASQEESAGSLGENQAKYTPSLTVIVENSPRDNAMKVAEWTNKGEPCCKIEAQEPESKFNLMQILQDNGNLSKVQARLAFSAYLQHVQIRLTKDSGGQTLSPSWAAKEDEQMELVVRFLKRASSNLQHSLRMVLPSRRLALLERRRILAHQLGDFIGVYNKETEQMAEKKSKKKLEEEEEDGVNAESFQEFIRQASEAELEEVLTFYTQKNKSASVFLGTHSKSSKNSSSYSDSGAKGDHPETIQEVKIKQPKQQQATEIHADKLSRFTTSSGKEAKLVYTNCSSFCSPAAVLLQRLPSSHLSSVITTSALSAGPGHHASLSQIPPAVPSLPHQPALLLSPVPDNAPPSIHSGTQNVSPAGLPRCRSGSYTIGPFSSFQSAAHIYSQKLSRPSSAKAAGSCHPHKHHSGIAKTQKEGEDVSLNRRYNQSLVTAELQRLAEKQAARQYSPASHISLLTQQVTNLNLASSVINRSSASTPPTLRPVISPSGPTWSIQPDLHASETHSSPPGSRSLQTGGFAWEGEVENNAYSKTTGVVPQHKYHPTAGSYQLHFALQQLEQQKLQSRQLLDQSRARHQAIFGSQTLPNSSLWTMNNGPGCRISSATTGGQKPNTLPQKVVAPPNSSTLVSKPASNHKQVLRKPASQRASKGSSAEGQLNGLQSSLNPAAFMPITNSTGSLEAPQVIFARSKPLPTQSGALATVIGQRKSKSVKSGTI

Biological target: T1, FLAG-miniTurbo-CCDC66
Assay: proximity labelling

Molecule | binding
RPGRIP1L (IMCD3 cells) (from UniProt Q8CG73 1-1264) | binds
CEP290 (IMCD3 cells) (from UniProt Q6A078 1-2472) | no binding
TOGARAM1 (IMCD3 cells) (from UniProt Q6A070 1-1776) | binds
B1 | binds
B2 | binds
B3 | binds
B4 | binds
B5 | binds

These are yes or no findings as the source states them, for the method shown. In cells and extracts the contact can be indirect. A yes stands for co-enrichment or nearness to the bait. Other partners may have been found. A no says only that the protein was not detected with the bait. Tags and fused reporters may be left off the sequences shown.
